Results are given in words; binding and its absence hold for the method and conditions named. In cells and extracts the contact can be indirect. These calls come from enrichment with a bait or labelling near it, and not all partners need be listed.

The target in the assay is protein G-related A2M-binding protein (GRAB) (S. pyogenes) (UniProt Q7DAL7). The assay can be described thus: affinity purification with mass spectrometry; AP-DIA: 10 μg affinity-tagged bait on Strep-Tactin Sepharose beads, pooled normal human plasma (100 μl) or saliva (200 μl), 37 °C, 1 h, washed with ice-cold PBS, eluted with biotin; DIA-MS; sfGFP as negative control; only the target purified.

B1: alpha-2-macroglobulin (protein, UniProt P01023 24-1474)
chain: SVSGKPQYMVLVPSLLHTETTEKGCVLLSYLNETVTVSASLESVRGNRSLFTDLEAENDVLHCVAFAVPKSSSNEEVMFLTVQVKGPTQEFKKRTTVMVKNEDSLVFVQTDKSIYKPGQTVKFRVVSMDENFHPLNELIPLVYIQDPKGNRIAQWQSFQLEGGLKQFSFPLSSEPFQGSYKVVVQKKSGGRTEHPFTVEEFVLPKFEVQVTVPKIITILEEEMNVSVCGLYTYGKPVPGHVTVSICRKYSDASDCHGEDSQAFCEKFSGQLNSHGCFYQQVKTKVFQLKRKEYEMKLHTEAQIQEEGTVVELTGRQSSEITRTITKLSFVKVDSHFRQGIPFFGQVRLVDGKGVPIPNKVIFIRGNEANYYSNATTDEHGLVQFSINTTNVMGTSLTVRVNYKDRSPCYGYQWVSEEHEEAHHTAYLVFSPSKSFVHLEPMSHELPCGHTQTVQAHYILNGGTLLGLKKLSFYYLIMAKGGIVRTGTHGLLVKQEDMKGHFSISIPVKSDIAPVARLLIYAVLPTGDVIGDSAKYDVENCLANKVDLSFSPSQSLPASHAHLRVTAAPQSVCALRAVDQSVLLMKPDAELSASSVYNLLPEKDLTGFPGPLNDQDNEDCINRHNVYINGITYTPVSSTNEKDMYSFLEDMGLKAFTNSKIRKPKMCPQLQQYEMHGPEGLRVGFYESDVMGRGHARLVHVEEPHTETVRKYFPETWIWDLVVVNSAGVAEVGVTVPDTITEWKAGAFCLSEDAGLGISSTASLRAFQPFFVELTMPYSVIRGEAFTLKATVLNYLPKCIRVSVQLEASPAFLAVPVEKEQAPHCICANGRQTVSWAVTPKSLGNVNFTVSAEALESQELCGTEVPSVPEHGRKDTVIKPLLVEPEGLEKETTFNSLLCPSGGEVSEELSLKLPPNVVEESARASVSVLGDILGSAMQNTQNLLQMPYGCGEQNMVLFAPNIYVLDYLNETQQLTPEIKSKAIGYLNTGYQRQLNYKHYDGSYSTFGERYGRNQGNTWLTAFVLKTFAQARAYIFIDEAHITQALIWLSQRQKDNGCFRSSGSLLNNAIKGGVEDEVTLSAYITIALLEIPLTVTHPVVRNALFCLESAWKTAQEGDHGSHVYTKALLAYAFALAGNQDKRKEVLKSLNEEAVKKDNSVHWERPQKPKAPVGHFYEPQAPSAEVEMTSYVLLAYLTAQPAPTSEDLTSATNIVKWITKQQNAQGGFSSTQDTVVALHALSKYGAATFTRTGKAAQVTIQSSGTFSSKFQVDNNNRLLLQQVSLPELPGEYSMKVTGEGCVYLQTSLKYNILPEKEEFPFALGVQTLPQTCDEPKAHTSFQISLSVSYTGSRSASNMAIVDVKMVSGFIPLKPTVKMLERSNHVSRTEVSSNHVLIYLDKVSNQTLSLFFTVLQDVPVRDLKPAIVKVYDYYETDEFAIAEYNAPCSKDLGNA
For B1, the binding entry is “binds”.

For the origin of these results see paper PMC6588558.
